Experimental data from paper PMC4690333.
No constants are given. Whether binding was seen depends on the method and setting. In cells and extracts the contact can be indirect. Some binding calls cover weakened binding; strength is not graded here.

The chains behind the UniProt entries cited, without tags or fusion partners.
UniProt P51593: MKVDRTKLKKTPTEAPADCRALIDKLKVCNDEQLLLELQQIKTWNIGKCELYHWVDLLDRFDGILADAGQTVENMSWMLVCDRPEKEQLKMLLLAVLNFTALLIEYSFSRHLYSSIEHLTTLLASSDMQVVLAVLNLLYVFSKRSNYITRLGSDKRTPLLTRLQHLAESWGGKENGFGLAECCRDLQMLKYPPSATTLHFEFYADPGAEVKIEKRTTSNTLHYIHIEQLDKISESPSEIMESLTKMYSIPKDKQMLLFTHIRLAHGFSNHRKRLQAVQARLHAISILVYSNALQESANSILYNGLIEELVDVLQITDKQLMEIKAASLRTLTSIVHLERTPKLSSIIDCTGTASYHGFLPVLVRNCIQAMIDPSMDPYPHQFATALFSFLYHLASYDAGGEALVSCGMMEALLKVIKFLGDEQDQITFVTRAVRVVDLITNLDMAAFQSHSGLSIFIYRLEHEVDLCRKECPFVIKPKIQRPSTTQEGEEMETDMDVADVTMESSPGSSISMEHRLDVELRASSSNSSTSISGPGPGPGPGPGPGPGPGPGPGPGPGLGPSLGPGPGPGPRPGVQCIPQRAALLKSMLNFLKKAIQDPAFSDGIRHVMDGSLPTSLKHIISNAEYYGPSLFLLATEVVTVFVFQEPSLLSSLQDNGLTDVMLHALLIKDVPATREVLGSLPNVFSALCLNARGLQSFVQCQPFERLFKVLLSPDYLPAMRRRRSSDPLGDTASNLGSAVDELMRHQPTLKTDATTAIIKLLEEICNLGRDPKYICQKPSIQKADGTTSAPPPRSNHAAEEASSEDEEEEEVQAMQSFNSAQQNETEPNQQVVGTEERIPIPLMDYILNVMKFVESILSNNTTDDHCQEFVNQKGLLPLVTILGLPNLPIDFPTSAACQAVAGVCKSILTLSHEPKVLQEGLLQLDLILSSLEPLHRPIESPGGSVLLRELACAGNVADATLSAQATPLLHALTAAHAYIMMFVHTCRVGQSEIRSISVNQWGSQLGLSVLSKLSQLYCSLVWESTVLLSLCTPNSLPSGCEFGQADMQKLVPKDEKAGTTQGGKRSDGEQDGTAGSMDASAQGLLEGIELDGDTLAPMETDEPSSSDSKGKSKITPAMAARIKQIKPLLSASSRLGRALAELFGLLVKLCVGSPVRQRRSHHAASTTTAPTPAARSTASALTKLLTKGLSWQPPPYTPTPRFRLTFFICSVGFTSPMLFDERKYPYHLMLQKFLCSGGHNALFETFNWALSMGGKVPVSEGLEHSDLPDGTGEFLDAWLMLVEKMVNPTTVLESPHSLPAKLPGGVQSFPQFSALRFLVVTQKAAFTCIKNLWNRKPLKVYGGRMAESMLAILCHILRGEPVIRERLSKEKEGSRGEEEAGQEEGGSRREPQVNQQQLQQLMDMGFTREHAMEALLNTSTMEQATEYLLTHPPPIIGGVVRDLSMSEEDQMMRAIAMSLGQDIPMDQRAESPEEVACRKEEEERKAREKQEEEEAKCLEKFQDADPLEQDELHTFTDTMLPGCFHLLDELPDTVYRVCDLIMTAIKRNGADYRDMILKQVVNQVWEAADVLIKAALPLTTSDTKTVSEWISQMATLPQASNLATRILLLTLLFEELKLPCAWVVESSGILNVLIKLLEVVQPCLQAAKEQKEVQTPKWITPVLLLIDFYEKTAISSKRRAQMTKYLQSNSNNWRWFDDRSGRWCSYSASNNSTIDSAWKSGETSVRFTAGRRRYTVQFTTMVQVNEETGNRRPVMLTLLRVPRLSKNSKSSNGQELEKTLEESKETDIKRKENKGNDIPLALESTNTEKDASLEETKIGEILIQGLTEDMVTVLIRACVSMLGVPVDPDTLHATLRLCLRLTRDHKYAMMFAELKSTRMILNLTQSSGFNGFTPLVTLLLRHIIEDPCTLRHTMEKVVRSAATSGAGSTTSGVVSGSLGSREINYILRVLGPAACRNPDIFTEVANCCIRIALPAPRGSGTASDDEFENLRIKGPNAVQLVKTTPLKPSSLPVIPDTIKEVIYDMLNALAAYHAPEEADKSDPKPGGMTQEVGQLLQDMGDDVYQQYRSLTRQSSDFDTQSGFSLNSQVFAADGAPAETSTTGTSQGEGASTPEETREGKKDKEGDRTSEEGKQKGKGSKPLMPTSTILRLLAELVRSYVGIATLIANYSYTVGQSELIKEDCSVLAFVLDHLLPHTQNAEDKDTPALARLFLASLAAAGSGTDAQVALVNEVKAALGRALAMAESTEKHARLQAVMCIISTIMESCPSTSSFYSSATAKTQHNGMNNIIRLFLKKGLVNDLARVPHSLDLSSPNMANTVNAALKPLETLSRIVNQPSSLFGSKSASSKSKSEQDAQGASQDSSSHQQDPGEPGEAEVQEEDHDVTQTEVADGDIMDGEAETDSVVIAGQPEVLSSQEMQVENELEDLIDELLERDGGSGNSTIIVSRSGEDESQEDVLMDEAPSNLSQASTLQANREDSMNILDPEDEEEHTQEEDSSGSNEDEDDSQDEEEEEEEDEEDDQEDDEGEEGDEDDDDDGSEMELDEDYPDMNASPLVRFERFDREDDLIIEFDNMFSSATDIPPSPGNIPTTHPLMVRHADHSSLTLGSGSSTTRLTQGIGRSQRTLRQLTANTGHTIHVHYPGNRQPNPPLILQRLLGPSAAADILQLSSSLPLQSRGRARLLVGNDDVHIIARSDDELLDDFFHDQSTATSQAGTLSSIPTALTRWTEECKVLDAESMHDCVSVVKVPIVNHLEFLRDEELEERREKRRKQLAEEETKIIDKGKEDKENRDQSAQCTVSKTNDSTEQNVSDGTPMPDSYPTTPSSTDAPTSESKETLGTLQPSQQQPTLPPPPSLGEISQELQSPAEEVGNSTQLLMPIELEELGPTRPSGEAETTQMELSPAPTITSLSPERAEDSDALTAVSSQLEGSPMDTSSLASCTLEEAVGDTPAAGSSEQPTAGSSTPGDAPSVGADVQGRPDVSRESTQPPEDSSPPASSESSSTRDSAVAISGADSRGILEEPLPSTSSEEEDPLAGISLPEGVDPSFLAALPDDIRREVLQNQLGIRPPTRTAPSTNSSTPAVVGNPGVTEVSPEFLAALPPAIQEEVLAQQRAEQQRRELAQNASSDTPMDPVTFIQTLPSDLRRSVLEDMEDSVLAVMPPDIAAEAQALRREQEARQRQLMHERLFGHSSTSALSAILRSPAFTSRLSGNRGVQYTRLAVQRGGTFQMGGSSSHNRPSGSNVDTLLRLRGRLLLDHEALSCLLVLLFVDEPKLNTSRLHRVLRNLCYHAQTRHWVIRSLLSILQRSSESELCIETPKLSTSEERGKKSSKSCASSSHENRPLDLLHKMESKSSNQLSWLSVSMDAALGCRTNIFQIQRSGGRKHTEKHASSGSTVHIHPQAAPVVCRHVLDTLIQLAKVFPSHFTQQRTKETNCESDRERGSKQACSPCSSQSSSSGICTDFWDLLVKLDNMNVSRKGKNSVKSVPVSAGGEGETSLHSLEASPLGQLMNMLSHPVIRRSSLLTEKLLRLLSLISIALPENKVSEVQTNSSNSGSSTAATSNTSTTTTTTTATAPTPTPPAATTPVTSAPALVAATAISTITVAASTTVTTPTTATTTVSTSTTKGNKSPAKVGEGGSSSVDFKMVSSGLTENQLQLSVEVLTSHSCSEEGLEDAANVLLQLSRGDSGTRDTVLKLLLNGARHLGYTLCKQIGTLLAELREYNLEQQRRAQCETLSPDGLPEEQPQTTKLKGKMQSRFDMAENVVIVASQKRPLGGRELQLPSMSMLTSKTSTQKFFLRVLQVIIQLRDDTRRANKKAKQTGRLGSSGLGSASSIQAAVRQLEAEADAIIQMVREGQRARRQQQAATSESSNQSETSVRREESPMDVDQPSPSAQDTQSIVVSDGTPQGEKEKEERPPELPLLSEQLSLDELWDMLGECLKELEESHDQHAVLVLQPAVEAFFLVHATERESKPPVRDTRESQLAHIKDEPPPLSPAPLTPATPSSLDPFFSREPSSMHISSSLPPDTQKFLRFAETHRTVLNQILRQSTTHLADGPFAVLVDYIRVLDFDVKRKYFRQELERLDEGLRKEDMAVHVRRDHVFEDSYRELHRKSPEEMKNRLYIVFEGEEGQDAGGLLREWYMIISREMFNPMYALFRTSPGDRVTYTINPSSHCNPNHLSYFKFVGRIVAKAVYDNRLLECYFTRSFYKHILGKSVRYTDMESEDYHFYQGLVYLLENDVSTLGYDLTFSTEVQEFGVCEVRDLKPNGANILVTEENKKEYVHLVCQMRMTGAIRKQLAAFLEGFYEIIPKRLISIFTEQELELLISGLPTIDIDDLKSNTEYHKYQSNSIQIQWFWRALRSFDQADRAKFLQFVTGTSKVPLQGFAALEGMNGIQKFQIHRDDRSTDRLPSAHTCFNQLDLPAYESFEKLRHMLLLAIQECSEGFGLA

B1: Growth arrest and DNA-damage inducible protein 45 beta (Gadd45b) (protein, UniProt F7FLQ8 1-160)
chain: MTLEELVASDNAVQKMQAVTAAVEQLLVAAQRQDRLTVGVYEAAKLMNVDPDSVVLCLLAIDEEEEDDIALQIHFTLIQSFCCDNDIDIVRVSGMQRLAQLLGEPAETLGTNEARDLHCLLVTNCHTDSWKSQGLVEVASYCEESRGNNQWVPYISLEER

Experiments:
[1] = target: T1, Growth arrest and DNA-damage inducible protein 45 beta (Gadd45b) (rat (endogenous in primary cortical neurons)) (UniProt F7FLQ8); assay: co-IP; lysate of primary rat cortical neurons, normal or OGD 3 h and reperfusion 24 h; 1 ug anti-Huwe1, anti-Gadd45b or anti-IgG antibody at 4 °C overnight, magnetic beads 10 min at room temperature, washed 3 times with PBS/Tween, Western blot; IgG as negative control
T1 sequence: B1 chain

[2] = target: Huwe1 (HECT, UBA and WWE domain containing 1) (rat (endogenous in primary cortical neurons)) (UniProt P51593); assay: as above

Molecule	binding [1]	binding [2]
Huwe1 (HECT, UBA and WWE domain containing 1) (from UniProt P51593 1-4454) (enzyme)	binds	
B1		binds
